{
  "sequences": {"note": "Amino acid sequences for entries named in this document (tags omitted). A change or cut given only in a name is not applied to a line headed by its entry.", "UniProt P23771": "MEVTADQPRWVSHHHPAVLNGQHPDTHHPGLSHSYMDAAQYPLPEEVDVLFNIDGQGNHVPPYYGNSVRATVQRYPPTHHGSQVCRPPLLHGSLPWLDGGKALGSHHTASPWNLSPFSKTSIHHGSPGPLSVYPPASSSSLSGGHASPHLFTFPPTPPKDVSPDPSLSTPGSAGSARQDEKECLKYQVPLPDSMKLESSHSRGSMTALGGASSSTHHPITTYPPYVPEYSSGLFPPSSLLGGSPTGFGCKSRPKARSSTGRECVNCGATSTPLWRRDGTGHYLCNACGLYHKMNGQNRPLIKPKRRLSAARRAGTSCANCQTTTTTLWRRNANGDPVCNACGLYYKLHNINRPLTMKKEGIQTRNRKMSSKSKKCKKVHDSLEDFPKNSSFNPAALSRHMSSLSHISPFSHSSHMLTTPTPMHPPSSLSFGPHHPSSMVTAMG", "UniProt P15976": "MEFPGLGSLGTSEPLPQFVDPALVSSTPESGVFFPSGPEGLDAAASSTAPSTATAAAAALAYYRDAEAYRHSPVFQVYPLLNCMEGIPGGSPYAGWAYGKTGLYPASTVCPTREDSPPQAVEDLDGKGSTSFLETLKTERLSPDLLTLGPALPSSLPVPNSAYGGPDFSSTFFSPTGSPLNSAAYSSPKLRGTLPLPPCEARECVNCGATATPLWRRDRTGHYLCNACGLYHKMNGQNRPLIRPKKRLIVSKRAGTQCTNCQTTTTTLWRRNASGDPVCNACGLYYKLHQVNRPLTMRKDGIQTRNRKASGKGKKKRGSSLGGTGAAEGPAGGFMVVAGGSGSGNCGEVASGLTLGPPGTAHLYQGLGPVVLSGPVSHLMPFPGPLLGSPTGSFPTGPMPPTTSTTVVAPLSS", "UniProt Q9BWX5": "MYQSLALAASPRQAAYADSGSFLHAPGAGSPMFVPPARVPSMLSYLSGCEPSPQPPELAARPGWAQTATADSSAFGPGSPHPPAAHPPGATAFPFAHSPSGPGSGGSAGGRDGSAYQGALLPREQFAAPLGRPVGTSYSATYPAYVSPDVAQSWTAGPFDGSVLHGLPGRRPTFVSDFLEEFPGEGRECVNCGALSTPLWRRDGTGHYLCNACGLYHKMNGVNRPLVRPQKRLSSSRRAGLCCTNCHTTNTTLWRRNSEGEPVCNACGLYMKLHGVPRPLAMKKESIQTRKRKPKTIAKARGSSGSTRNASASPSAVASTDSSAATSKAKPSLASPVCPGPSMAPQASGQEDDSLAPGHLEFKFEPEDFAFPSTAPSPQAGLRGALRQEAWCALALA", "UniProt P43694": "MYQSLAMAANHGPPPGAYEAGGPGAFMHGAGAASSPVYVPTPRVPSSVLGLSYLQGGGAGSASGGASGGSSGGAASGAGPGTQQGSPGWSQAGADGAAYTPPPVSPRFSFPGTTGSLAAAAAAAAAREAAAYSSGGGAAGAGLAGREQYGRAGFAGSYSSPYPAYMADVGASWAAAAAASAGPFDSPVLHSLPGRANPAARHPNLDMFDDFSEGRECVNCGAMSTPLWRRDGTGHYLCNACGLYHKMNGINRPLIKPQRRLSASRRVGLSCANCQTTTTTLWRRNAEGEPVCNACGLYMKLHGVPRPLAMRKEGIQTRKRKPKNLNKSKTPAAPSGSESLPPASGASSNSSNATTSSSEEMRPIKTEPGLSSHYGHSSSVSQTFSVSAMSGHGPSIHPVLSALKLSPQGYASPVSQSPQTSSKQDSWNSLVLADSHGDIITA"},
  "source": "paper PMC6874683",
  "about": "“Pyrrothiogatain acts as an inhibitor of GATA family proteins and inhibits Th2 cell differentiation in vitro” (Scientific Reports, 2019)",
  "key": {"[1]": {"target": "FLAG-GATA3 (UniProt P23771)", "assay": "AlphaScreen", "details": "AlphaScreen: 100 mM Tris-HCl pH 8.0, 150 mM NaCl, 0.1% Tween 20, 1 mg/mL BSA, 26 C, 1 h, protein translated in vitro, protein details: N-terminal FLAG, label: 5'-biotin"}, "[2]": {"target": "FLAG-GATA3 (UniProt P23771)", "assay": "competition with a labelled probe", "details": "AlphaScreen, EMSA: 4 C, 20 min, 4% polyacrylamide gel, protein translated in vitro, protein details: N-terminal FLAG"}, "[3]": {"target": "T1, FLAG-GATA2 (UniProt P23769)", "T1 sequence (looked up, limits assumed)": "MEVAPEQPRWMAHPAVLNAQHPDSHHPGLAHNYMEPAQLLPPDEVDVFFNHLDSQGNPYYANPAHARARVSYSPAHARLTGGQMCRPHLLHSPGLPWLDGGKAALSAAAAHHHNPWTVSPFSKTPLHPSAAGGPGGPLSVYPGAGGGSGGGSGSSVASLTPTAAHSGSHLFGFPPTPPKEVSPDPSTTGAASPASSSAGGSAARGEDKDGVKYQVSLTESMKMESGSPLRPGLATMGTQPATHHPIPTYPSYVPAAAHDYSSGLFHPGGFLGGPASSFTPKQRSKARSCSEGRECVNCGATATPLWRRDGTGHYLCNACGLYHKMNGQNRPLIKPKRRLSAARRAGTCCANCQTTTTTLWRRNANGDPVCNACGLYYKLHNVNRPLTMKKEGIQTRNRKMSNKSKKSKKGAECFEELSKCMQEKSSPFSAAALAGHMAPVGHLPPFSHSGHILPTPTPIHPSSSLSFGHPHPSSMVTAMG", "assay": "AlphaScreen", "details": "150 mM NaCl, inhibited by pyrrothiogatain, IC50 about 50 uM; AlphaScreen: 100 mM Tris-HCl pH 8.0, 150 mM NaCl, 0.1% Tween 20, 1 mg/mL BSA, 26 C, 1 h; protein translated in vitro; protein details: FLAG; label: 5'-biotin"}, "[4]": {"target": "FLAG-GATA1 (UniProt P15976)", "assay": "AlphaScreen", "details": "150 mM NaCl; AlphaScreen: 100 mM Tris-HCl pH 8.0, 150 mM NaCl, 0.1% Tween 20, 1 mg/mL BSA, 26 C, 1 h; protein translated in vitro; protein details: FLAG; label: 5'-biotin"}, "[5]": {"target": "FLAG-GATA5 (UniProt Q9BWX5)", "assay": "AlphaScreen", "details": "150 mM NaCl, inhibited by pyrrothiogatain, IC50 about 50 uM; AlphaScreen: 100 mM Tris-HCl pH 8.0, 150 mM NaCl, 0.1% Tween 20, 1 mg/mL BSA, 26 C, 1 h; protein translated in vitro; protein details: FLAG; label: 5'-biotin"}, "[6]": {"target": "FLAG-GATA4 (UniProt P43694)", "assay": "AlphaScreen", "details": "150 mM NaCl, inhibited by pyrrothiogatain, IC50 about 50 uM; AlphaScreen: 100 mM Tris-HCl pH 8.0, 150 mM NaCl, 0.1% Tween 20, 1 mg/mL BSA, 26 C, 1 h; protein translated in vitro; protein details: FLAG; label: 5'-biotin"}},
  "note": "Construct, isoform or probe ends are uncertain for at least one entry. For part of these data: Negatives hold for the conditions tested. For part of these data: Where a protein sequence is shown, tags need not be part of it.",
  "data": [
    {"sequence": "CACTTCTTAACAGAAAGTCTTAACTCT (double strand) [MT (GATA-site mutant, biotin)]", "values": [
      {"measurement": "binding result", "setting": "[1]; 150 mM NaCl, signal at background", "value": "no binding"},
      {"measurement": "binding result", "setting": "[1]; 100 and 125 mM NaCl, considerable non-specific signal", "value": "binds"}
    ]},
    {"sequence": "CACTTCTTAACAGAAAGTCTTAACTCT (double strand) [mutant DNA, non-labelled competitor]", "values": [
      {"measurement": "binding result", "setting": "[2]; vs 4 nM N1, 150 mM NaCl", "value": "no binding"}
    ]},
    {"sequence": "CACTTGATAACAGAAAGTGATAACTCT (double strand) [GATA3 consensus DNA (biotin)]", "values": [
      {"measurement": "binding result", "setting": "[1]; 150 mM NaCl", "value": "binds"},
      {"measurement": "binding result", "setting": "[3]", "value": "binds"},
      {"measurement": "binding result", "setting": "[4]", "value": "no binding"},
      {"measurement": "binding result", "setting": "[5]", "value": "binds"},
      {"measurement": "binding result", "setting": "[6]", "value": "binds"}
    ]},
    {"sequence": "CACTTGATAACAGAAAGTGATAACTCT (double strand) [GATA consensus DNA, non-labelled]", "values": [
      {"measurement": "binding result", "setting": "[2]; vs 4 nM N1, 0-250 nM competitor, 150 mM NaCl", "value": "binds"}
    ]}
  ]
}
